Source: the supplement of paper PMC11006884
This is a selection; strong and weak results do not stand in their true shares. The data scatter; read single values as rough.

By UniProt entry, the sequences of proteins in these tests, tags left out. Where a name states a change or a piece, a line headed by the entry shows the natural chain unless it says otherwise.
UniProt O94906: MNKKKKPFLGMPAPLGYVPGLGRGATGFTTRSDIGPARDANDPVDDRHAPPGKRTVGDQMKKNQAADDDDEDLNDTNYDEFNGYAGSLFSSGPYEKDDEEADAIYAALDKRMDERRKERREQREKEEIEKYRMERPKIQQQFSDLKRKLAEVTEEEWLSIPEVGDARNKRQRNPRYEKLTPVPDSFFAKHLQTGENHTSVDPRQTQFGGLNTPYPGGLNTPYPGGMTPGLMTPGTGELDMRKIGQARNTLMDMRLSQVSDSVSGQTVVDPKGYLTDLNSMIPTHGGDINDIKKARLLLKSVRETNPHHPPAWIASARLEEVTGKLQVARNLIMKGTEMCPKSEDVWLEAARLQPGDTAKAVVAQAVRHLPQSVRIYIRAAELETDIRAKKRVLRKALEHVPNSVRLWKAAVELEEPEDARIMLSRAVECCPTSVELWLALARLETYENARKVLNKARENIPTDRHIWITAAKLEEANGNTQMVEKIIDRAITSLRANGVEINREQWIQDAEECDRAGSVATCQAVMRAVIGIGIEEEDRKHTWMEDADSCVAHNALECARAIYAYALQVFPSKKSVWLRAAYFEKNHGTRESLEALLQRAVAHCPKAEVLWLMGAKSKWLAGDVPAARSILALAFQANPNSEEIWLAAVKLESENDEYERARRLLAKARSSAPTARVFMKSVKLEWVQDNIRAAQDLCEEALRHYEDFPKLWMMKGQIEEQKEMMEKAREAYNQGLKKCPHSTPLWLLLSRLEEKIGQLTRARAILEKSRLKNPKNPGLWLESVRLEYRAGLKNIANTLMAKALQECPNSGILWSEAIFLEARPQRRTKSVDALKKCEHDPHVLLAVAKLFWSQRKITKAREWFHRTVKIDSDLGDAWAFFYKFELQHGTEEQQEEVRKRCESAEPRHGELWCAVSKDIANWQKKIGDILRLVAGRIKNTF
UniProt O95248: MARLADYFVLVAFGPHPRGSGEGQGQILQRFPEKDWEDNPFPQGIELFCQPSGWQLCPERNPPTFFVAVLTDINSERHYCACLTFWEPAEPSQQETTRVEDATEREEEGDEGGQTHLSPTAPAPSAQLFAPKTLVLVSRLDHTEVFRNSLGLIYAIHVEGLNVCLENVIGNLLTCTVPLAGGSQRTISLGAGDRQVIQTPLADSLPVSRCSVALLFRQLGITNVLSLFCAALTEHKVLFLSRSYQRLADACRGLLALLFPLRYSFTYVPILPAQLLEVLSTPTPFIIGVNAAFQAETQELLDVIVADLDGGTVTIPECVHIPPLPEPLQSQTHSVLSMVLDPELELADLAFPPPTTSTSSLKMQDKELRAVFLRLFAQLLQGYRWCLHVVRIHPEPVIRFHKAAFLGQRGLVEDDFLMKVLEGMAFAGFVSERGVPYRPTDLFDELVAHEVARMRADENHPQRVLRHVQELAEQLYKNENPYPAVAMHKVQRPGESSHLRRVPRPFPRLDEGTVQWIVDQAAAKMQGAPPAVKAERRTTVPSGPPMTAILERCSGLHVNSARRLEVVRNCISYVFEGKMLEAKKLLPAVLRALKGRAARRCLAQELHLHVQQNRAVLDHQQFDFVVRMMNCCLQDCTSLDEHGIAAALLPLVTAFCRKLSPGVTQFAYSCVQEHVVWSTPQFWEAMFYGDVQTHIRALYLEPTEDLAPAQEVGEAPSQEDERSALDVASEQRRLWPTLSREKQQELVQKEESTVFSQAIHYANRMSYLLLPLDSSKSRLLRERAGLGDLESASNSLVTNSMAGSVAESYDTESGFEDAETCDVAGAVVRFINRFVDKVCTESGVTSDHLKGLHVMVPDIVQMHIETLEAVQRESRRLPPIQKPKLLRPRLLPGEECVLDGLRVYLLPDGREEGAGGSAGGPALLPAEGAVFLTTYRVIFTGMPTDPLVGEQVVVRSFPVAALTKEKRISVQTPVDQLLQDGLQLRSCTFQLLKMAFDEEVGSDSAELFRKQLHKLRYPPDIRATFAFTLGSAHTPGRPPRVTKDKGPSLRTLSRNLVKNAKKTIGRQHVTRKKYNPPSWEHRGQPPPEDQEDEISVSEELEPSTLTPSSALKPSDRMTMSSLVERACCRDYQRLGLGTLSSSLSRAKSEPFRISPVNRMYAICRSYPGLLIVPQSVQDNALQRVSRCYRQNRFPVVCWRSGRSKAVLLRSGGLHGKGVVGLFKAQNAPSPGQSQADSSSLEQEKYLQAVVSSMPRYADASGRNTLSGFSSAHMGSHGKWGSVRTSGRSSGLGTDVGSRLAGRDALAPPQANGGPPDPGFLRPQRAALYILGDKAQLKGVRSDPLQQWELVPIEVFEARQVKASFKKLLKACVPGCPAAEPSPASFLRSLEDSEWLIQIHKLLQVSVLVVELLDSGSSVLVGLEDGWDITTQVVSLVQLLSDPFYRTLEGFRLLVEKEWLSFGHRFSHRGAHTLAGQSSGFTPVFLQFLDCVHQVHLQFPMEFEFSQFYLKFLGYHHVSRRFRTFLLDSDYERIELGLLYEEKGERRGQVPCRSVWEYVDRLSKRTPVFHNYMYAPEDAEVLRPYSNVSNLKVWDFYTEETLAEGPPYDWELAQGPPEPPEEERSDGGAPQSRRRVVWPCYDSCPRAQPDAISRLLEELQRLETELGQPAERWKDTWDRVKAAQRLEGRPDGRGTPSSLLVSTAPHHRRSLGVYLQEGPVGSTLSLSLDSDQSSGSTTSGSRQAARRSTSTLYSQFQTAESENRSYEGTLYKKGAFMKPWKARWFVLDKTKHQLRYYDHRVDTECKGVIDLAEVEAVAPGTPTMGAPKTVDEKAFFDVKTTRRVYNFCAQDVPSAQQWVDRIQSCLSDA
UniProt O95801: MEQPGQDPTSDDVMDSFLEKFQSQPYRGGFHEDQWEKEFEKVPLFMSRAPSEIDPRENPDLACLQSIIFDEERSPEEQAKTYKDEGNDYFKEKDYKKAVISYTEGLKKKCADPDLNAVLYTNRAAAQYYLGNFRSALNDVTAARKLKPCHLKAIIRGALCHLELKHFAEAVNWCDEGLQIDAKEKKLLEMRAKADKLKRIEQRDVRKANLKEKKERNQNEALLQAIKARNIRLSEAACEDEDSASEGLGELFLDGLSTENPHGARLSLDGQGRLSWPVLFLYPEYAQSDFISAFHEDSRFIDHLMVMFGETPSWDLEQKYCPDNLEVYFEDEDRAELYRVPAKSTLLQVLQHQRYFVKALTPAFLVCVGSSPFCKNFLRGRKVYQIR
UniProt P04040: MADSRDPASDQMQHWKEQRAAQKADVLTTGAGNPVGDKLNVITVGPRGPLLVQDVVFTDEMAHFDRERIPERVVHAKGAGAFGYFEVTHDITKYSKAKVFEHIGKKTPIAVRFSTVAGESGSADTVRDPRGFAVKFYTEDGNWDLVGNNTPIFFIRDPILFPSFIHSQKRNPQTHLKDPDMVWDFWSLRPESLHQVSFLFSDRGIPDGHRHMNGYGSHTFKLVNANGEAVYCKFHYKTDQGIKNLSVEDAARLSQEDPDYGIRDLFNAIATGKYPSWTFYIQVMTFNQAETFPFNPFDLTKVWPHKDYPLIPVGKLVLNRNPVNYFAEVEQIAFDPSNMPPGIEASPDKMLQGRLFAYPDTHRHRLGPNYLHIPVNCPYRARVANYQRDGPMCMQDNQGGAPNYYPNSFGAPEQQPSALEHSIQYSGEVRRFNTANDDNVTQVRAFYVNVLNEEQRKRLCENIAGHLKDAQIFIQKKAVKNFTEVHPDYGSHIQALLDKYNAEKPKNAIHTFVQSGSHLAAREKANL
UniProt O95140: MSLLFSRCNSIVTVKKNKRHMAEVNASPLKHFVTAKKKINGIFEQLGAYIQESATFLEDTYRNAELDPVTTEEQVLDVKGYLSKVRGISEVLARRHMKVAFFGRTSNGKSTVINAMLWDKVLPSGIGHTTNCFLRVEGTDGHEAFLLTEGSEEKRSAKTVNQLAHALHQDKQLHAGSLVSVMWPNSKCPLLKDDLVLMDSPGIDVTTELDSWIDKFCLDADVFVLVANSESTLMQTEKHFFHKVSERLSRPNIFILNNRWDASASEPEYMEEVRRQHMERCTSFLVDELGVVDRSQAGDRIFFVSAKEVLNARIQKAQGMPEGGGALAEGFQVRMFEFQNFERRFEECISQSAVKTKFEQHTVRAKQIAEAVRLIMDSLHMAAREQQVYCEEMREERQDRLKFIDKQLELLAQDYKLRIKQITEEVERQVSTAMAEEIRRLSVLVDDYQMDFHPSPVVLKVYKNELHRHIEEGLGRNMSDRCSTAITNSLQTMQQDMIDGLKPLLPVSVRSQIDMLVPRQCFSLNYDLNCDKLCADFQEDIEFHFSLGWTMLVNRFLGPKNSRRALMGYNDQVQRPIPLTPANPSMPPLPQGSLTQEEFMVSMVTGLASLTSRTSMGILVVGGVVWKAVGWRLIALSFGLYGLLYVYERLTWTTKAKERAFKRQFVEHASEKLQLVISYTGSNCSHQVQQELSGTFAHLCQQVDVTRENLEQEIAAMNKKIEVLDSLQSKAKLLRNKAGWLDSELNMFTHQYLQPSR
UniProt O95319: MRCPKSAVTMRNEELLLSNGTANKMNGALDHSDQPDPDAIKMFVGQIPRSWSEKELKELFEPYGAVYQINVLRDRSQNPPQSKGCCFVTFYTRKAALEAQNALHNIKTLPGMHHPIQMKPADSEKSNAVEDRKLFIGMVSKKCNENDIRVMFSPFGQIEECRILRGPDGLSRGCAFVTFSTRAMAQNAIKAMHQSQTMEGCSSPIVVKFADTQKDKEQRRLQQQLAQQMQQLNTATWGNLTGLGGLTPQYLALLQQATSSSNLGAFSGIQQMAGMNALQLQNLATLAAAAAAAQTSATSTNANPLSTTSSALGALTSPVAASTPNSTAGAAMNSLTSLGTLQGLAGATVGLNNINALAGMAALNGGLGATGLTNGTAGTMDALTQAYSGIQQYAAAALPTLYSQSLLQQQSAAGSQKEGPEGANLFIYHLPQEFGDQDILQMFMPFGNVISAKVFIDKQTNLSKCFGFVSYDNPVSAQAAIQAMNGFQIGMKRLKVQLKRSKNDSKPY
UniProt P05455: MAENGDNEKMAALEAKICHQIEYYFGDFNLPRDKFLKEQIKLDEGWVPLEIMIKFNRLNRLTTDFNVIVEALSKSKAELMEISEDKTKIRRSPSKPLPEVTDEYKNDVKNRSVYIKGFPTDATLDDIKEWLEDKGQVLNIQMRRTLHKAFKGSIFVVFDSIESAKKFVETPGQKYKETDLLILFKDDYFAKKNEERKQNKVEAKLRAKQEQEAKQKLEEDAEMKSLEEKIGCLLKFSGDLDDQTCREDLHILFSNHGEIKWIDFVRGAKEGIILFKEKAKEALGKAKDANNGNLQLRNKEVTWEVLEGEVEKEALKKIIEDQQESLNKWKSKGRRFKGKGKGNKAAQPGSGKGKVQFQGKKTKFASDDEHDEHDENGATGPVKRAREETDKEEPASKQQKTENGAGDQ
UniProt O95639, whole entry, looked up: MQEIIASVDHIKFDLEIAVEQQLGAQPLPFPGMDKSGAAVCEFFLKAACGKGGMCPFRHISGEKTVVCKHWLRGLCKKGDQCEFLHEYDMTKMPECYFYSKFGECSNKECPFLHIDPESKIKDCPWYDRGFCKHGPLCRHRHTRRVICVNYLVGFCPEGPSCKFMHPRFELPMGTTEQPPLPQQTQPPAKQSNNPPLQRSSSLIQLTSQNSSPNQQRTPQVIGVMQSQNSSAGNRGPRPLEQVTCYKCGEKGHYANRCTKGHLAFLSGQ
UniProt O94806: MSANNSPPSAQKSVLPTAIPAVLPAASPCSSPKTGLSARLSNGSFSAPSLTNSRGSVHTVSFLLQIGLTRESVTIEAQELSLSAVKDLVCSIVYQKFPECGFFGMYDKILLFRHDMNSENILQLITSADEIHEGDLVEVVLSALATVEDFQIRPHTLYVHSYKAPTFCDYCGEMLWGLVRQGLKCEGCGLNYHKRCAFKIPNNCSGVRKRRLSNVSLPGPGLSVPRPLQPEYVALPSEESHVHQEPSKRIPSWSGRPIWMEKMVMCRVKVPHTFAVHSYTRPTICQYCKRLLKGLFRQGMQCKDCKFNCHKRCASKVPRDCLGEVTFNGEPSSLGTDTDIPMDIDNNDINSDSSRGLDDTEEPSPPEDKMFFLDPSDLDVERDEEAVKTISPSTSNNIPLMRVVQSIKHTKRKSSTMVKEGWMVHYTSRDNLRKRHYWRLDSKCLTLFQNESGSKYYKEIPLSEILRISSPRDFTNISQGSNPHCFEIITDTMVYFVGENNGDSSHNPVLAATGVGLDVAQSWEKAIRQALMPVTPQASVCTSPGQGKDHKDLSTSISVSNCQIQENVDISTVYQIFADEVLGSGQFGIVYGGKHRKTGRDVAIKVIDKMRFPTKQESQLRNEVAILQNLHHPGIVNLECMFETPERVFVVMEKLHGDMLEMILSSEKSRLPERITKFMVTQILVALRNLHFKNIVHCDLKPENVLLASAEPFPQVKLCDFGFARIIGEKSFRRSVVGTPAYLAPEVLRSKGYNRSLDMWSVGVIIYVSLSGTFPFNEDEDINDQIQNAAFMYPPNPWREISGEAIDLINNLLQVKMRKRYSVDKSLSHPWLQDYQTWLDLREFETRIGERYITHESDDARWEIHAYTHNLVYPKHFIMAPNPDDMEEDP

Compound: COC(=O)/C=C/c1ccccc1 [methyl cinnamate]
Assay: log2 ratio of iodoacetamide-alkyne labeling of the cysteine site, DMSO over compound (competition); higher = stronger covalent engagement of the cysteine by the compound, active = 1 or more
Settings: 500 µM; treatment time 1 h; system: HEK293T cell lysate
How it was run: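 Three replicates, each with duplicate channels, were prepared from HEK293T lysate (2 mg/mL) treated with vehicle or electrophile at 500 µM for 1 h at ambient temperature. Iodoacetamide alkyne was then applied for 1 h, and samples were clicked to sCIP-TMT reagents, pooled, trypsin-digested overnight at 37 °C, enriched on streptavidin, acid-eluted and analysed on Orbitrap Eclipse LC-MS/MS with FAIMS, with FragPipe quantification. The log2 competition ratio per cysteine is the mean control-channel divided by the mean compound-channel reporter intensity. Cysteines quantified in only one replicate were left out.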

log2 ratio of iodoacetamide-alkyne labeling, inactive:
PRPF6 C807 (UniProt O94906) -0.0921
SBF1 C553 (UniProt O95248) 0.151
UniProt O94826_C544 0.0724
TTC4 C110 (UniProt O95801) 0.191
MYO1D C143 (UniProt O94832) 0.462
MTA2 C495 (UniProt O94776) 0.122
SOD1 C112 (UniProt P00441) -0.194
EPRS C1448 (UniProt P07814) 0.125
UniProt O96017_C539 0.328
CAT C377 (UniProt P04040) 0.0331
SASH1 C799 (UniProt O94885) 0.429
IPO7 C90 (UniProt O95373) -0.228
SNAPIN C66 (UniProt O95295) 0.271
HSPA4L C167 (UniProt O95757) 0.22
PRPF6 C837 (UniProt O94906) -0.0345
UniProt O95071_C2314 0.109
MFN2 C348 (UniProt O95140) 0.161
TTC4 C63 (UniProt O95801) -0.049
UniProt O95319_C174 0.0609
SSB C245 (UniProt P05455) 0.0721
RPLP0 C119 (UniProt P05388) 0.139
HERC2 C1201 (UniProt O95714) -0.0943
UniProt P04350_C12 0.12
CPSF4 C41 (UniProt O95639) 0.111
ZFPL1 C230 (UniProt O95159) 0.26
UniProt O94763_C420 0.258
HSPA4L C589 (UniProt O95757) 0.137
UniProt O94813_C907 0.189
PCNT C2150 (UniProt O95613) 0.335
PPP1R3D C26 (UniProt O95685) 0.254
UniProt P00491_C206 -0.0573
ALDOA C202 (UniProt P04075) 0.17
GOT2 C382 (UniProt P00505) 0.022
EPRS C1148 (UniProt P07814) 0.0439
PRKD3 C29 (UniProt O94806) 0.275
SVIL C26 (UniProt O95425) 0.237
SOD2 C164 (UniProt P04179) -0.205

Retrieved one by one from the entries so far (2):
log2 ratio of iodoacetamide-alkyne labeling, inactive:
UniProt O94813_C907 0.189
UniProt O94826_C544 0.0724
